The values that follow come from publication PMC10139020.

By UniProt entry, the sequences of proteins in these tests, tags left out.
UniProt P35222: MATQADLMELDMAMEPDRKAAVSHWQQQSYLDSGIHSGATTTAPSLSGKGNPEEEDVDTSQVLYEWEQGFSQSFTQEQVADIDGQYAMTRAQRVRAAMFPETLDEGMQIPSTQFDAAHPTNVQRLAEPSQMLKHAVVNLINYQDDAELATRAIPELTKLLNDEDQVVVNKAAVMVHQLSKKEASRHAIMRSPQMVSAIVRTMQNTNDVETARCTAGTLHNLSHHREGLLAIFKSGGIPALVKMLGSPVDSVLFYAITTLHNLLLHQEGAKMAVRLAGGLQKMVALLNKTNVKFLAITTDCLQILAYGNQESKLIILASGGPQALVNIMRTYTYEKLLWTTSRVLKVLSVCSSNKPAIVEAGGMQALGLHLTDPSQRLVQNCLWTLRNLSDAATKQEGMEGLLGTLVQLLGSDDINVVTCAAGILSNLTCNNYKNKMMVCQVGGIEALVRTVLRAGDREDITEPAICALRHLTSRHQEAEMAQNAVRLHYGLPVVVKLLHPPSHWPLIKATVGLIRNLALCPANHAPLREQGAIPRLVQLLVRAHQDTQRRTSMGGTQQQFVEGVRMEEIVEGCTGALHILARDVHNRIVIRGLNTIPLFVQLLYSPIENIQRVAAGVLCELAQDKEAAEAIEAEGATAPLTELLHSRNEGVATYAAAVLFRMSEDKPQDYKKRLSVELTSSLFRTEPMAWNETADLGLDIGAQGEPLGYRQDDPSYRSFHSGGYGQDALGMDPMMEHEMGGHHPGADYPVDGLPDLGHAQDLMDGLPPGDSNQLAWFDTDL
UniProt P04150: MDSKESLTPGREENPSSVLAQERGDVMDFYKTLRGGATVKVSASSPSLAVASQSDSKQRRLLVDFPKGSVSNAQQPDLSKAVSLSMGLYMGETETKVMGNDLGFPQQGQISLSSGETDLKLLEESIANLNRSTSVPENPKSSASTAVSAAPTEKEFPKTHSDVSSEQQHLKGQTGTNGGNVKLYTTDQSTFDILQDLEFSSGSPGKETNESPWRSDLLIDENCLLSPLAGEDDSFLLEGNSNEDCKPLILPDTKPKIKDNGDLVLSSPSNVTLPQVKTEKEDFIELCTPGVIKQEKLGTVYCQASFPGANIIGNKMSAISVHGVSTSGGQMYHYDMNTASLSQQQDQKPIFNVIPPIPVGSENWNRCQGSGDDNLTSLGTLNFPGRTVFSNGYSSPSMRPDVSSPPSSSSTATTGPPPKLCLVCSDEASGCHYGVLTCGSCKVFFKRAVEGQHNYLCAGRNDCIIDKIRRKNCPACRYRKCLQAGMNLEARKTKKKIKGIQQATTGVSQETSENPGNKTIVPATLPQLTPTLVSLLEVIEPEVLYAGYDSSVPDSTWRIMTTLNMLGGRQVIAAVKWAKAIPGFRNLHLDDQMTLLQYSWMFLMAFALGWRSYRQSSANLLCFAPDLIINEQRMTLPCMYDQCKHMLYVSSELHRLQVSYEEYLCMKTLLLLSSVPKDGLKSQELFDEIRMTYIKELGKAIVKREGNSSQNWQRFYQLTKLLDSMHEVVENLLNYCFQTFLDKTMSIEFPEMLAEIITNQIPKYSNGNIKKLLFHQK

No constants are given. Whether binding was seen depends on the method and setting. In cells and extracts the contact can be indirect. Some entries that bind do so weakly or less than the wild type.

Assay [1] has as its target β-catenin (human (endogenous in 22rv1, PC3 and DU145 cells)) (UniProt P35222). The assay can be described thus: co-IP; whole cell lysates (non-denaturing lysis buffer) of DTX-sensitive and DTX-resistant 22rv1, PC3 and DU145 cells in complete medium; 500 ug protein, rabbit monoclonal anti-GR or anti-total β-catenin 1:100 with Protein A/G Sepharose, 12 h at 4 °C; detection by immunoblot with mouse monoclonal antibodies; normal rabbit IgG as negative control.

The target in assay [2] is Glucocorticoid receptor (human (endogenous in 22rv1, PC3 and DU145 cells)) (UniProt P04150). The description is as above.
The target is the same in assay [3]. Put plainly: co-IP; nuclear extracts (Nuclear Complex Co-IP kit, enzymatic shearing) of DTX-sensitive and DTX-resistant prostate cancer cells grown 12 h in CS-FBS medium and treated with 10 nM dexamethasone for 30 min; 100 ug extract, rabbit antibody 1/100, 12 h at 4 °C, Protein A/G Sepharose; detection by immunoblot with mouse monoclonal antibodies. On the technique in general: In western blotting, separated proteins are transferred to a membrane and probed.

Regarding “Glucocorticoid receptor (from UniProt P04150 1-777)”, in assay [1], the binding entry is “binds”.

Turning to β-catenin (from UniProt P35222 1-781), the binding result in assay [2] and in assay [3] was “binds” throughout.
